Measurements: publication PMC8755797
No constants are given. Whether binding was seen depends on the method and setting. A result given as binding can be weak or reduced; the word gives no strength. For part of these data: Tags and fused reporters may be left off the sequences shown. For part of these data: In cells and extracts the contact can be indirect. Blank lines part the entries; values can stand above or below the molecule they belong to.

Chains of the proteins cited; added tags and fusions are not shown. Lines headed by an entry give the natural chain unless they say otherwise; changes in a name come on top.
UniProt Q9LXD7: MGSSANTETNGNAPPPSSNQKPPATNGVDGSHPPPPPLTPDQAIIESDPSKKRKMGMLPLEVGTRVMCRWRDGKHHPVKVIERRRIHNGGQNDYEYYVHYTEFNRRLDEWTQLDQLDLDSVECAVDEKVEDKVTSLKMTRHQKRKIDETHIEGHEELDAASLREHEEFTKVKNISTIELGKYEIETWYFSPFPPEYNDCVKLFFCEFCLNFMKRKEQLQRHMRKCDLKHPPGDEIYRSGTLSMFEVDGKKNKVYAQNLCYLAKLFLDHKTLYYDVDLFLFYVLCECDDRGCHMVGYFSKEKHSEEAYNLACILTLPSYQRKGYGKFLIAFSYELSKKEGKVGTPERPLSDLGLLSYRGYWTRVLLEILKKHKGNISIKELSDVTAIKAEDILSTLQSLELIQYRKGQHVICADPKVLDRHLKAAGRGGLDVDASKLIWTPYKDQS
UniProt Q9FX82: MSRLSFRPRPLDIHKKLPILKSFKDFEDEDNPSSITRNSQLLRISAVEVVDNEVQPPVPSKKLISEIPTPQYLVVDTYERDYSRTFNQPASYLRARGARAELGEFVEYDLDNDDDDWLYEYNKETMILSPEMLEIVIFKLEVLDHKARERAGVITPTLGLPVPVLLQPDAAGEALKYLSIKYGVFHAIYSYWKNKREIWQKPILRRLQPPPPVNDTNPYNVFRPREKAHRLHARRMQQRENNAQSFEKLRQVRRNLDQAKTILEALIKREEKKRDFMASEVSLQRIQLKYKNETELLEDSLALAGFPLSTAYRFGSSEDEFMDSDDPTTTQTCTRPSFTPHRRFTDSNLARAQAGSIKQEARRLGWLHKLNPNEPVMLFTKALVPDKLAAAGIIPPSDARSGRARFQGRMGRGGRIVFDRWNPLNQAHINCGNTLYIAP
UniProt F4IDH5: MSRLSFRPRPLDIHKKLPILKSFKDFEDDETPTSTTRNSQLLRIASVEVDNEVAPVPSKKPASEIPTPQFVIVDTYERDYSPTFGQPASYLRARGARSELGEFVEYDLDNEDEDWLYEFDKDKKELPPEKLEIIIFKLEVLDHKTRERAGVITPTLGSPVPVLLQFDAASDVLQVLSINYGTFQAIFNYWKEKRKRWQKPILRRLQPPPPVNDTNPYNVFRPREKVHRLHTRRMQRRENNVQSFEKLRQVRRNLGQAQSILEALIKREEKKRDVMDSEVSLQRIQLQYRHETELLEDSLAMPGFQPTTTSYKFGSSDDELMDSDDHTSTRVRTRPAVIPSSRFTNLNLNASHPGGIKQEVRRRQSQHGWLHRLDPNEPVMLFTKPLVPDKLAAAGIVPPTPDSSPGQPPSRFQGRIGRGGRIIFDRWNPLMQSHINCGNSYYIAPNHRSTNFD

Columns and labels:
ING2-6×His (A. thaliana) = biological target: T1, ING2-6×His (A. thaliana) (UniProt B3H615); assay: pull-down; co-purification: Flag-HAM1, ING2-6×His, AtEPL1A and AtEAF6 co-expressed in E. coli from pST44; cobalt resin via ING2-6×His, then anti-Flag M2 resin, elution with 3×FLAG peptides
T1 sequence: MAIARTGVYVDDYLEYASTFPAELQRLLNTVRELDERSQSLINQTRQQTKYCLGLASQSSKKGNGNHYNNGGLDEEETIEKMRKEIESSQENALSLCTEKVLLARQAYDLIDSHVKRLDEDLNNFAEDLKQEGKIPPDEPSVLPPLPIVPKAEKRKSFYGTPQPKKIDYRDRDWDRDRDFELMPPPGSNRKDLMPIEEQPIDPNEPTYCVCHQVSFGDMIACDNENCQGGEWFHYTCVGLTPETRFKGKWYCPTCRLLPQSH

HAM1-6×His (A. thaliana) = biological target: T2, HAM1-6×His (A. thaliana) (UniProt Q9FLF7); assay: pull-down; co-purification: HAM1-6×His, Flag-AtEPL1A, AtING2 and AtEAF6 co-expressed in E. coli from polycistronic pST44; purified on Talon cobalt resin via HAM1-6×His, eluted with 150 mM imidazole; Coomassie gel, western blot for HAM1-His and Flag-AtEPL1A
T2 sequence: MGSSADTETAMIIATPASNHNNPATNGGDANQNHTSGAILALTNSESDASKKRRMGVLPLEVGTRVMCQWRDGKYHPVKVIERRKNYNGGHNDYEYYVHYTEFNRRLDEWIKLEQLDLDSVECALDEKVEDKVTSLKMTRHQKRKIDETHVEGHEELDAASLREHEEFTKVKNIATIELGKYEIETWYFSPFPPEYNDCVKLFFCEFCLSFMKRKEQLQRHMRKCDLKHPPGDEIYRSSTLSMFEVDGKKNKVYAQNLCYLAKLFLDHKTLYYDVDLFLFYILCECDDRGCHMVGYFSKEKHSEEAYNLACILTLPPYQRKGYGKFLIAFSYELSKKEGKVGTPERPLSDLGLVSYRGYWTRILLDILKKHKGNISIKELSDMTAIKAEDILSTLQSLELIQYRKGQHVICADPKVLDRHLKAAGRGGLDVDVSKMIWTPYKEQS

His-HAM2 (A. thaliana) = His-HAM2 (A. thaliana) (UniProt Q9LXD7); assay: pull-down; His-GFP or His-fusion proteins from bacterial lysates bound to HIS-Select HF Nickel Affinity Gel for 1 h, washed, incubated with recombinant GST-fusion proteins 1 h at 4 °C; five washes with wash buffer containing 0.5% NP40; western blot with anti-GST and anti-His; only the target purified
His-HAM1 (A. thaliana) = biological target: T3, His-HAM1 (A. thaliana) (UniProt Q9FLF7); assay: as above
T3 sequence: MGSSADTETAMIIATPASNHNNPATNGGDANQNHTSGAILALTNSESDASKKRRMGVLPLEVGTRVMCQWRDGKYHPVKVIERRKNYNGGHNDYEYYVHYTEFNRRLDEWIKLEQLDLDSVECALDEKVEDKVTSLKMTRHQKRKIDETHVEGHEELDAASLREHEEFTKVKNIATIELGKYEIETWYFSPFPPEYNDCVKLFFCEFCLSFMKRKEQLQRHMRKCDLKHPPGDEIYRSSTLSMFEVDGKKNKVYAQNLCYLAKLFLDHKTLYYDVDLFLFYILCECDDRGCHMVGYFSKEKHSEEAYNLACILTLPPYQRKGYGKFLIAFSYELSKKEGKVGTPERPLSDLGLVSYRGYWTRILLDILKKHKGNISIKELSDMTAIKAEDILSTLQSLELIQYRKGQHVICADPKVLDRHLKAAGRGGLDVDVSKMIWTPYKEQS

[1] = biological target: T4, His-tagged fragment of AtEAF1B corresponding to AAs 430-1322 (A. thaliana) (UniProt F4J7T2); assay: as above
T4 sequence: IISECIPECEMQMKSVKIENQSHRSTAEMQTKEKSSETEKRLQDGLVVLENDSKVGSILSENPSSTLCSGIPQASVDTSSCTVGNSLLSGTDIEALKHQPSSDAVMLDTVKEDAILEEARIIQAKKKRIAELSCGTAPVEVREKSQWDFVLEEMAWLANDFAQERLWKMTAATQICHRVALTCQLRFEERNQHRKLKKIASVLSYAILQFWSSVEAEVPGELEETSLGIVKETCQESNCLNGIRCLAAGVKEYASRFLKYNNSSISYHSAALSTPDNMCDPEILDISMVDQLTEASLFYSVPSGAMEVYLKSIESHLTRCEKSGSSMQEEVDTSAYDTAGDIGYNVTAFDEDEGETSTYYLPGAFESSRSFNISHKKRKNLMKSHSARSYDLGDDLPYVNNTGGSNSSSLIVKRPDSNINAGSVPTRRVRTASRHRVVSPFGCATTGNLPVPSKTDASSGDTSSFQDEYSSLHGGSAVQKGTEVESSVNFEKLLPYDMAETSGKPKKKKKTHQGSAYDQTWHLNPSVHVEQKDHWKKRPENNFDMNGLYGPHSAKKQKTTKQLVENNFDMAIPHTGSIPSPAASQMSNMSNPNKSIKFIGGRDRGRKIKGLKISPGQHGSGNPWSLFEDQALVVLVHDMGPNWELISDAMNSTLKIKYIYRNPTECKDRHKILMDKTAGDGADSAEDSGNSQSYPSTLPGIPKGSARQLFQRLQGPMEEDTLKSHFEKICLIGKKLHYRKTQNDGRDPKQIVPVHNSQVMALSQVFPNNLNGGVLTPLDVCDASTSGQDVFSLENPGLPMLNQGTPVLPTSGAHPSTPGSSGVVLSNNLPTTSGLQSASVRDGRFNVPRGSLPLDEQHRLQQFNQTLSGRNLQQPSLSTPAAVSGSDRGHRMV

[2] = biological target: GST-AtEPL1A (A. thaliana) (UniProt Q9FX82); assay: far-Western, overlay or dot blot; GST-AtEPL1A/B purified on Glutathione Sepharose, resolved by SDS-PAGE, blotted on PVDF and renatured (guanidine-HCl steps in AC buffer); membrane incubated with His-HAM1 or His-HAM2, detected with anti-His; how His-HAM1/2 were prepared for this experiment is not told; only the target purified
[3] = biological target: GST-AtEPL1B (A. thaliana) (UniProt F4IDH5); assay: as above
[4] = biological target: Flag-AtEPL1A (A. thaliana) (UniProt Q9FX82); assay: pull-down; co-purification of the co-expressed recombinant picNuA4 subunits with AtEPL1A as bait; procedure not told in the methods (Supplementary Fig. 8a)

Molecule: AtEAF6 (A. thaliana)
binding (ING2-6×His (A. thaliana)): binds
binding (HAM1-6×His (A. thaliana)): binds

Molecule: AtEPL1A (A. thaliana)
binding (ING2-6×His (A. thaliana)): binds

Molecule: GST-AtEPL1A (from UniProt Q9FX82)
binding (His-HAM2 (A. thaliana)): binds
binding (His-HAM1 (A. thaliana)): binds

B1: HAM1-6×His (enzyme, UniProt Q9FLF7 1-445)
chain: MGSSADTETAMIIATPASNHNNPATNGGDANQNHTSGAILALTNSESDASKKRRMGVLPLEVGTRVMCQWRDGKYHPVKVIERRKNYNGGHNDYEYYVHYTEFNRRLDEWIKLEQLDLDSVECALDEKVEDKVTSLKMTRHQKRKIDETHVEGHEELDAASLREHEEFTKVKNIATIELGKYEIETWYFSPFPPEYNDCVKLFFCEFCLSFMKRKEQLQRHMRKCDLKHPPGDEIYRSSTLSMFEVDGKKNKVYAQNLCYLAKLFLDHKTLYYDVDLFLFYILCECDDRGCHMVGYFSKEKHSEEAYNLACILTLPPYQRKGYGKFLIAFSYELSKKEGKVGTPERPLSDLGLVSYRGYWTRILLDILKKHKGNISIKELSDMTAIKAEDILSTLQSLELIQYRKGQHVICADPKVLDRHLKAAGRGGLDVDVSKMIWTPYKEQS
binding [4]: binds

B3: His-HAM1 (enzyme, UniProt Q9FLF7 1-445)
chain: MGSSADTETAMIIATPASNHNNPATNGGDANQNHTSGAILALTNSESDASKKRRMGVLPLEVGTRVMCQWRDGKYHPVKVIERRKNYNGGHNDYEYYVHYTEFNRRLDEWIKLEQLDLDSVECALDEKVEDKVTSLKMTRHQKRKIDETHVEGHEELDAASLREHEEFTKVKNIATIELGKYEIETWYFSPFPPEYNDCVKLFFCEFCLSFMKRKEQLQRHMRKCDLKHPPGDEIYRSSTLSMFEVDGKKNKVYAQNLCYLAKLFLDHKTLYYDVDLFLFYILCECDDRGCHMVGYFSKEKHSEEAYNLACILTLPPYQRKGYGKFLIAFSYELSKKEGKVGTPERPLSDLGLVSYRGYWTRILLDILKKHKGNISIKELSDMTAIKAEDILSTLQSLELIQYRKGQHVICADPKVLDRHLKAAGRGGLDVDVSKMIWTPYKEQS
binding [2]: binds
binding [3]: binds

Next, values leading:

binding (HAM1-6×His (A. thaliana)): binds
Molecule: Flag-AtEPL1A (from UniProt Q9FX82)

binding (His-HAM2 (A. thaliana)): binds
binding (His-HAM1 (A. thaliana)): binds
binding [1]: binds
Molecule: GST-AtEPL1B (from UniProt F4IDH5)

binding [2]: binds
binding [3]: binds
Molecule: His-HAM2 (from UniProt Q9LXD7 1-445) (enzyme)

binding [4]: binds
B2: AtING2 (protein, UniProt B3H615 1-262)
chain: MAIARTGVYVDDYLEYASTFPAELQRLLNTVRELDERSQSLINQTRQQTKYCLGLASQSSKKGNGNHYNNGGLDEEETIEKMRKEIESSQENALSLCTEKVLLARQAYDLIDSHVKRLDEDLNNFAEDLKQEGKIPPDEPSVLPPLPIVPKAEKRKSFYGTPQPKKIDYRDRDWDRDRDFELMPPPGSNRKDLMPIEEQPIDPNEPTYCVCHQVSFGDMIACDNENCQGGEWFHYTCVGLTPETRFKGKWYCPTCRLLPQSH
